Test results as given in patent US20060148828A1, “Combination comprising a CDK inhibitor and a topoisomerase 1 inhibitor for the treatment of cancer and other proliferative diseases” (Cyclacel Limited, priority 2003, published 2006).

Tested on: PKC

For `CC[C@H](CO)Nc1nc(NCc2ccccc2)c2ncn(C(C)C)c2n1` [roscovitine, 6-benzylamino-2-[(R)-1-ethyl-2-hydroxyethylamino]-9-isopropylpurine], the IC50 was over 50 µM.
